The results in this text go back to paper PMC2762042.

By UniProt entry, the sequences of proteins in these tests, tags left out. Residues count along the entry.
UniProt P0DJD3, 8-85: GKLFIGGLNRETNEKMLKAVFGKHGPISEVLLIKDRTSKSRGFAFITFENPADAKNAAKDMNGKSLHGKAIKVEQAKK
UniProt P38159, 8-86: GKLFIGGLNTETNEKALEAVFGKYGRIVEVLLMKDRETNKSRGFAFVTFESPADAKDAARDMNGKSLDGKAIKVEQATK
UniProt O75526, 8-86: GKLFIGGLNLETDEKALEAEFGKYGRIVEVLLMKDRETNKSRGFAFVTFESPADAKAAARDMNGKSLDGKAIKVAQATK

The exact form of at least one protein or probe is not confirmed. For some of these results: A negative result means that nothing was seen under these conditions. For some of these results: Weaker means in comparison with the reference protein, sequence or condition of that experiment. For some of these results: At least one verdict was read from the data and is not stated in words by the source. For some of these results: Where cells or extracts were used, other partners may take part. For some of these results: Tags and fusion partners may be left off the protein sequences shown.

One series addresses RBMY RRM (Homo sapiens?) (UniProt P0DJD3). Briefly: EMSA. The following applies: EMSA with radio-labelled T7 transcripts and 30 or 100 ng RRM protein, recombinant protein, probe letters rebuilt from the primers and the genome, part of a longer molecule; for binding result: much weaker than S1A, label: radio-labelled. A general note: Mobility shift assays separate free from complexed probe on a gel.

Series [1] deals with hnRNP G RRM (Homo sapiens) (UniProt P38159). The series is described as follows: EMSA. The following applies: EMSA with radio-labelled T7 transcripts and 30 or 100 ng RRM protein, recombinant protein, probe letters rebuilt from the primers and the genome, part of a longer molecule.
In series [2] the target is hnRNP G-T RRM (Homo sapiens) (UniProt O75526). Briefly: EMSA. The note with it: EMSA with radio-labelled T7 transcripts and 30 or 100 ng RRM protein, recombinant protein, probe letters rebuilt from the primers and the genome, part of a longer molecule.
For a further series, the target named is T1, Tra2beta (transfected) (UniProt P62995).
T1 sequence (looked up, limits assumed): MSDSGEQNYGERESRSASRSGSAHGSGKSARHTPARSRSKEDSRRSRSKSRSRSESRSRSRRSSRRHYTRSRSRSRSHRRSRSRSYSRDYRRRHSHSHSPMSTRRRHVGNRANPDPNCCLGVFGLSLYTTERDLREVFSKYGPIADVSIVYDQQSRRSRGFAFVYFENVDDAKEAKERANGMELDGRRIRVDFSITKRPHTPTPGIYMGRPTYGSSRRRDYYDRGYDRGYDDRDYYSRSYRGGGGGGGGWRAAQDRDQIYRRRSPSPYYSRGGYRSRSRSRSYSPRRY
Briefly: UV crosslinking. The note with it: protein in a lysate after overexpression.

In the case of “ACCAAACAAGGACCUCAGGAAGCCUUACUGUGAAUGUCAUGUAUAACUAUGAUUUCUGCCUUUGAAAAGUUCUGGUCCA [F1]”, the Kd (usually the constant that tells how readily two partners part at equilibrium) in the series with RBMY RRM was 3.3 nM; in series [2] it was 3.9 nM. For the same sequence, the binding result in series [1] is given as “no binding”; in the series with Tra2beta (transfected) (very weak, probe letters rebuilt from the primers and the genome, part of a longer molecule), “binds more weakly”.
Consider “AGGUAUUGGGCUUUGGCUGAGGGCUUUUUGUUGUUGUUGUUGUUGUUUUUUUGUUUUUUGUUUUUUGUUUUUUUUUUGAGACAGGGUUUCACU [F4]”, for which the binding result with RBMY RRM is given as “binds more weakly”; in series [1] (label: radio-labelled), “no binding”; in series [2] (label: radio-labelled), “binds”.
As to “GAAAAGUUCUGGUCCAAUGGAACGAUGAGUCGGUGCUUAUUUUUUAUCCUGUAGGAGAAAAAGAAUAAAAGUGACACACC [F2]”, the results for the binding result (with RBMY RRM; in series [1] (label: radio-labelled)) were “binds more weakly” and “no binding”, respectively.
Take GAAGAAGAAGAAGAAGAA [(GAA)6]: in the series with Tra2beta (transfected), the binding result was “binds”.
